In PMC9998502, “Functional selectivity of EM-2 analogs at the mu-opioid receptor” (Frontiers in Pharmacology, 2023):
No constants are given. Whether binding was seen depends on the method and setting. Binding seen in cells or lysates may run through a third protein. Some binding calls cover weakened binding; strength is not graded here.

The chains behind the UniProt entries cited, without tags or fusion partners.
UniProt P35372: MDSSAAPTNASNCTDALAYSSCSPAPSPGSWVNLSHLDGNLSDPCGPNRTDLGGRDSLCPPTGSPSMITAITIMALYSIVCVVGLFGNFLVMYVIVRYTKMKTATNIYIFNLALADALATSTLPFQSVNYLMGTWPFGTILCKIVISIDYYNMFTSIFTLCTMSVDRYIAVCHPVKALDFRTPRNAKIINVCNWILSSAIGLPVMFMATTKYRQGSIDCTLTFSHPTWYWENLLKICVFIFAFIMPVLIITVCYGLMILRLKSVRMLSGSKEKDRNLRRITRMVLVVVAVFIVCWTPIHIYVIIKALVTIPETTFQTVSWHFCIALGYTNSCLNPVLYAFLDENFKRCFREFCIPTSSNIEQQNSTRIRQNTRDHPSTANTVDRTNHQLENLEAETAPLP
UniProt P32121: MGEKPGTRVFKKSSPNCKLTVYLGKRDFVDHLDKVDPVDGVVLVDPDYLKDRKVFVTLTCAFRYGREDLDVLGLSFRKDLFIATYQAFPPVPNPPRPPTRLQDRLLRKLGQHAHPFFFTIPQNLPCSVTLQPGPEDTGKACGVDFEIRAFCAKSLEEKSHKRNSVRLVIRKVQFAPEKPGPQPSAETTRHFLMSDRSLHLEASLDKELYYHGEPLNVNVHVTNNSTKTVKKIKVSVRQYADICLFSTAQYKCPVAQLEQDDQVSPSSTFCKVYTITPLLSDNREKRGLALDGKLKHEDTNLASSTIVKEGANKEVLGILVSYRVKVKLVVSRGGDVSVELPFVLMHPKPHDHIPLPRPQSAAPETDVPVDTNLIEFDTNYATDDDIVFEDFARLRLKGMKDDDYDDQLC

Biological target: RLuc-tethered human mu receptor fusion protein (human) (UniProt P35372)
Test: FRET or BRET; living SH-SY5Y cells stably co-expressing mu-RLuc and β-arrestin 2-RGFP, PBS with 0.5 mM MgCl2 and 0.9 mM CaCl2, 2 μM Prolume Purple Coelenterazine; agonist peptide added 5 min before reading; BRET ratio after vehicle subtraction

binding: binds
Substance: human β-arrestin 2 N-terminal-tagged with RGFP (from UniProt P32121 1-409)
